Values quoted from earlier work in patent publication US7872030B2, “Use of 2-[5-(4-fluorophenyl)-3-pyridylmethylaminomethyl]-chromane and its physiologically acceptable salts” (Merck Patent GmbH, priority 2001, dated 2011).
At least one compound was matched to its structure with a doubt left.

Tested on: Parkinson's disease
Conditions: in vivo; cited from earlier work

CN1CCN(C2=Nc3cc(Cl)ccc3Nc3ccccc32)CC1 [clozapine]
dyskinesias in Parkinson's disease: ameliorates dyskinesias
